The results in this text go back to PubChem BioAssay AID1347423 (Functional Genomics Laboratory (NCATS/FGL), 2020).

Screen size: about 52,000 sequences; about 210 (0.4%) were called active.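 How the source made its calls: active means gene whose silencing raises cell survival under the drug, median off-target-corrected z-score across its silencing RNAs 2 or more; inactive means the rest.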 The list shows a part of the results.

The assay is described as follows: Resistance to Poly (ADP-Ribose) Polymerase inhibitor: Gene Identification via Genome-wide siRNA Screen. The note with it: mouse BRCA2 R2336H ES cells, olaparib, CellTiter-Glo viability; stronger effect = higher value. A digest of the protocol: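 Mouse BRCA2 R2336H ES cells were reverse-transfected with siRNA (20 nM final), treated at 48 h with 500 nM olaparib, and read by CellTiter-Glo after 72 h. Scores: MAD-based z per siRNA, median per gene, seed off-target correction.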
A general note: Cellular ATP, detected with luciferase, serves as a proxy for viable cell number.
For CCAGUUGUGUGAAUUAUGUTT against Psmd2, the z-score was inactive: -2.44.

Consider GGUAAAACCGACAUUGACCTT against Lphn1, for which the z-score is inactive: 0.767.

Take “GGUAUUCUUCUACACUCCATT against A530065E19Rik”: the z-score is inactive: -1.12.

CGACAAGGGUUUUUAUUCUTT against Smcr8: the z-score is inactive: 1.6.

GCUGCACGAUGCAUGGUUUTT against Accn3: the z-score is inactive: 0.648.

With GGUGUUUGCCUCAGAAAUCTT against Pctk2, the z-score is inactive: -0.338.

For the sequence GGACUCAUUUUCUUGAUGGTT against Mre11a, the z-score was inactive: 0.821.

As for GCAUGCGCCCUAAAGGAAATT against LOC574428, the z-score is inactive: -1.03.

Take “GGUCUUUGUACAUCAAUGUTT against A830058L05”: the z-score is inactive: 0.0266.

On to GCUUUGUUGCCCUACUACCTT against Pacrg, for which the z-score is inactive: 0.131.

Consider GGGAACUAAGCAUUUUGAATT against Sec23a, for which the z-score was inactive: 0.255.

Consider GGUUCGUAUUCUCUUGGUGTT against H28, for which the z-score is inactive: -0.526.

With GCGACAGAAGUGUCAUAAUTT against Phax, the z-score was inactive: -1.19.

As to GGCCACAUGCUUAAAGUGCTT against Slc7a9, the z-score is inactive: -0.573.

Consider “GGAACUGUGGUUUUCUACCTT against 6530413N01Rik”, for which the z-score was inactive: -0.912.

CCUUAUGAAUCCCGAGUACTT against Bmp6: the z-score is inactive: -2.59.

Take GGGACAAAGGUUGAACAAGTT against Zfp36l1: the z-score was inactive: -1.96.

As to “GGCUGUGCUACAGUUUCUCTT against 1110007L15Rik”, the z-score is inactive: 2.82.

In the case of CCACUUUCAGAAACAUUACTT against BC048546, the z-score was inactive: -0.631.

GGAAGAGACUUAUAAUGGUTT against Olfr1214: the z-score was inactive: 1.98.

With “CCUGUUUCUUUCAUGCAGUTT against 2310022A10Rik”, the z-score was inactive: -0.415.

For the sequence “GGGCAUUGGUUCUCAGUGUTT against F730108M23Rik”, the z-score is inactive: -2.11.

With GCCCUAAGGAAGUACAGAGTT against Rgs19, the z-score was inactive: 1.27.

With GGCUCAGUUUACAAACCUGTT against D10Wsu93e, the z-score was inactive: 1.42.

On to GGAUGGUUACUAUCAGACUTT against Sec6l1, for which the z-score was inactive: -0.55.

As to “GGACCAUUUCCAUAGAGACTT against 8430417G17Rik”, the z-score was inactive: 1.51.

GGUCCAGAUUUACAACCCATT against Siat5: the z-score is inactive: 1.73.

With GCCACACUCCAUAAUUAGGTT against Als2cr13, the z-score is inactive: 0.111.

GGUCUAGGUAGGAGAACUUTT against Elf4: the z-score is inactive: -1.98.

For the sequence GGGCUGACUUCCUAUGACCTT against Adra2c, the z-score is inactive: 0.489.

Take GCGACAGCUUUGCUAAGAUTT against Ndfip2: the z-score is inactive: -1.13.

Take UGACUUUUGGACACGAGGCTT against Trim15: the z-score is inactive: -0.432.

In the case of GGAAGUGUUUGAUGUCUUATT against Stk4, the z-score was inactive: -1.1.

As to GGACAGUGGCACAAUGACATT against Dcbld1, the z-score is inactive: -1.17.

On to GGUCUCGCUCCAAGGAAGATT against Sfrs10, for which the z-score is inactive: -1.48.

With CGUUGUAUUUGGAAAAGUCTT against Ppic, the z-score is inactive: -1.84.

As for “GGGUUGUUUAAAAGGCCUUTT against 1110032D12Rik”, the z-score was inactive: 1.48.

GGAUCCGUGCAGACAUUGUTT against Gstm1: the z-score was inactive: -0.564.

Turning to CCACACGGUCUUAGAUGAGTT against Cdkl3, the z-score was inactive: 0.123.

For “GCUGUAUCACAAGAAGCCGTT against D7Ertd462e”, the z-score was inactive: 0.282.

In the case of GGACGUAAUACCUGAGGAUTT against Caps2, the z-score was inactive: -2.09.

For GGACAAGAAGGCAAAUUAGTT against Arhgap9, the z-score was inactive: 0.831.

Consider “GGGCCAUACCAUUUGGGUGTT against 1700123D08Rik”, for which the z-score was inactive: 0.407.

Take GUGAAACCUACAAAAAGCCTT against Ms4a4c: the z-score is inactive: 1.32.

Consider GGAUAGCUUGUGUAGACACTT against Olfr42, for which the z-score is inactive: 1.63.

Turning to GGCCAAGUCAAAAUAUUCUTT against Tm7sf1, the z-score was inactive: 1.92.

In the case of CGUCUAAAAGCUAAAGAAUTT against Serpinb1b, the z-score is inactive: -0.437.

For GCUCAUCACCUAUGCAGGCTT against Olfr371, the z-score is inactive: 0.219.

Turning to GGACUGAAACUCGAAGCUATT against Pou4f2, the z-score is inactive: -0.195.

As to GGGUUUCACAGGCAAACAGTT against Suclg1, the z-score was inactive: 1.86.

For the sequence GGAAAAACCUUGCUGGAACTT against Atp2a2, the z-score is inactive: -0.674.

As to GGUGUUAACAAAAUGUACCTT against Phyh, the z-score was inactive: 0.694.

Take UCUGUAAACCCUUACGAUATT against Olfr1206: the z-score was inactive: -0.0844.

In the case of CCUUGUUACACAGUUUAAATT against Aqp4, the z-score is inactive: 0.53.

In the case of GGCUGUAAAACUCUGGUUUTT against V1ri6, the z-score is inactive: 0.858.

For the sequence GGAAUUCCACAGAUAAUGGTT against V1rg12, the z-score was inactive: 1.23.

For the sequence GGGCCUCAUCUUUGUGGUATT against Arf5, the z-score was inactive: 0.264.

As for GGUGUAGUAAUAGGAUUUUTT against Ak3l, the z-score is inactive: 0.278.

As for GGCAACGAGUCAAGUGUGUTT against Ascl3, the z-score was inactive: 3.14.

Turning to GGGCAAAAAUAGGAAGAACTT against Armcx2, the z-score is inactive: -0.43.

Take GGAGAACACAGUACAGAUGTT against Zfp398: the z-score was inactive: 0.854.

In the case of GGAAGAGAUGGAAUUAUUGTT against Sh3bp5, the z-score was inactive: -0.737.

GGAAAUUUCUUAGCACGAATT against Ppp4r1: the z-score was inactive: 0.667.

With CCUCUGCGCAAUUUAGAGATT against Npb, the z-score was inactive: 0.185.

With GCAAAACUUGACUACCGCCTT against Bzw1, the z-score is inactive: 0.493.

On to “GGUUCUGGAAAUGGAGACUTT against 1700022C02Rik”, for which the z-score was inactive: 0.274.

Take GCUCCAUGGAAUAAUUAAATT against LOC432637: the z-score was inactive: 1.88.
